# Test results reported in US20250277039A1 (PURDUE RESEARCH FOUNDATION, published 2025).
# Results are given in words; binding and its absence hold for the method and conditions named.
# Target: cPD-L2 protein (canine)
# Assay: ELISA-based plate assay, bound antibody as OD450
binder,measurement,value
"cPD-L1 12C10E4 chimeric antibody (mouse variable domains, canine IgG2 / canine kappa constant domains) (antibody, Expressed in ExpiCHO-S cells from pTRIOZ-cIgG2-12C10E4; also called 12C chimeric antibody; mAb 12C) heavy: QVQLKQSGPGLVQPSQSLSITCTISGFSLTSFGVHWVRQSPGKGLEWLGVIWSGGSTDYNAAFTSRLSINKDNSKSQVFFKMNSLQADDTAIYYCARGGGPDWYFDVWGTGTTVTVSSASTTAPSVFPLAPSCGSTSGSTVALACLVSGYFPEPVTVSWNSGSLTSGVHTFPSVLQSSGLYSLSSMVTVPSSRWPSETFTCNVAHPASKTKVDKPVPKRENGRVPRPPDCPKCPAPEMLGGPSVFIFPPKPKDTLLIARTPEVTCVVVDLDPEDPEVQISWFVDGKQMQTAKTQPREEQFNGTYRVVSVLPIGHQDWLKGKQFTCKVNNKALPSPIERTISKARGQAHQPSVYVLPPSREELSKNTVSLTCLIKDFFPPDIDVEWQSNGQQEPESKYRTTPPQLDEDGSYFLYSKLSVDKSRWQRGDTFICAVMHEALHNHYTQKSLSHSPGK light: DIVLTQSPASLAVSLGQRATISCRASESVEYYGTSLMQWYQQKPGQPPKLLIFAASNVKSGVPARFSGSGSGTDFSLNIHPVEEDDIAMYFCQQSGKVPHTFGGGTKLEIKRSMEIKRTDAQPAVYLFQPSPDQLHTGSASVVCLLNSFYPKDINVKWKVDGVIQDTGIQESVTEQDKDSTYSLSSTLTMSSTEYLSHELYSCEITHKSLPSTLIKSFQRSECQRVD",binding,no binding
